Patent publication US20200369772A1 (ABBA THERAPEUTICS, published 2020)
Residue numbers refer to the chain shown, from its start. Names may count otherwise. These are yes or no findings as the source states them, for the method shown. Some results given as binding are weak or reduced against the parent protein; the word gives no strength.

B1: 8B5-B1 (antibody, V domains shown)
VH: EVQLLESGGGLVQPGGSLKLSCAASGFTFSSYAMFWVRQAPGEGLAWVSAITGSGDHTYYADSVKDHFTISRDNSKNTLYLQMNSLKAEDTAVYYCAKDASGNSYGFPYWYFDLWGRGTLVTVSS
VL: QSALTQPASVSGSPGQSITISCTGTSSDVAGYNFVSWYQHHPGKTPKLMIYDVTNRPSGVSTRFSGSKSGNTASLTISGLQAEDEADYYCSSFTSATTLVFGGGTKLTVLG
notes: Both formats under this entry
B2: 2C4-E4 (antibody, V domains shown)
VH: QVQLVQSGAEVKKPGASVKVSCKASGYTFTGYVMHWVRQAPGQRLEWMGWINADNGITKYSQKFQGRVTITRDTSASTAYMELTNLRSEDTAVYYCARATRGFGEFYFDYWGQGNLVTVSS
VL: DIQMTQSPSTLSASVGDRVTITCRASQTISSWLAWYQQKPGKAPNLLIYKASSLESGVPSRFSGSGSGTEFTLTISSLQPDDFATYYCQQYYSYWTFGQGTKVEIK
notes: Both formats under this entry
B3: 19B3-B3 (antibody, V domains shown)
VH: QVQLVQSGAEVKKPGASVKVSCMASGYTFTNYAIHWVRQAPGQRLEWMGWINTGLGKPKYSQMFQDRVTITRDTSASTASMELSGLRSDDTAVYYCARVGWELYFDYWGQGTLVTVSS
VL: B2 VL with T28S, W32L, N45K, Y87F, Y92N
notes: Both formats under this entry
B4: 11C11-H5 (antibody, V domains shown)
VH: QVQLVESGGGVVQPGRSLRLSCAASGFAFSAYGMHWVRQAPGKGLEWVAISWYDGSNNYHADSVKGRFTISRDSSKNTLYLQMNSLRAEDTAVYYCAKSIGVARHYYYGMDVWGQGTTVTVSS
VL: SYELTQPPSVSVSPGQTASITCSGEELGDKYACWYQQKPGQSPVLVIYQDSKRPSGIPERFSGSNSGNAATLTISGTQAMDEADYYCQAWDSITVVFGGGTKLTVLG
notes: Both formats under this entry
B5: 19C3-B3 (antibody, V domains shown)
VH: B4 VH
VL: B4 VL with V44L, V96I
notes: Both formats under this entry; also called 19C3-C3
B6: 10D1-G1 (antibody, V domains shown)
VH: QVQLQESGPGLVKPSGTLSLTCAVSGGSISSSYWWSWVRQPPGKGLEWIGEIFHIGSTNYNPSLRSRVTISVVKSKNQFSLNLNSVTAADTAVYFCARVSGGYGYFSGMDVWGQGTTVTVSS
VL: DIQMTQSPSSLSASVGDRVTITCRASQGIRNDLGWYQQKPGKAPKRLIYGASSLQSGVPSRFSGSGSGTEFTLTISSLQPEDFATYYCLQHNSYPRTFGQGTKVEIK
notes: Both formats under this entry
B7: 10A9-D2 (antibody, V domains shown)
VH: QVQLQESGPGLVKPSETLSLTCAVSGGSISSSYWWSWVRQPPGKGLEWVGEVFHVGVTNYNPSLKSRVTISVDKSKNQFSLKLTSVTAADTAVYYCARVTGTTGYYHGLDVWGQGTTVTVFS
VL: B6 VL with A43V, G50A, V58I, S93N
notes: Both formats under this entry
B8: 12A1-D4 (antibody, V domains shown)
VH: QVQLQESGPGLVKPSGTLSLTCAVSGGSISSNNWWSWVRQPPGKGLEWIGEIFHVGSTNYNPSLKSRVTISVDKSKNQFSLKLSSLTAADTAVYYCARMVGATGHYYGMDVWGQGTTVTVSS
VL: DIQLTQSPSFLSASVGDRVTITCRASQGISSSLAWYQQKPGKAPKFLIYAASTLQSGVPSRFSGSGSGTEFTLTISSLQPEDFATYYCQQLNSYPKSWTFGQGTKVEIK
notes: Both formats under this entry
B9: 1A1-C2 (antibody, V domains shown)
VH: QVQLQESGPGLVKPSGTLSLTCAVSGGSIGSSYWWTWIRQSPGKGLEWIGEIFHSGPTNYTPSLKSRVTISVDKSKNQFSLQLRSVTAADTAVYYCARTTGTTGFYYGMDVWGQGTTVTVSS
VL: EVVLTQSPATLYVTPGERVTLSCRASQSVSSNLAWYQQKPGQAPRLLIYGASTRATGIPARFSGSGSGTEFTLTISSLQSEDFAVYYCQQFNNWPRTFGLGTKVEIT
B10: 7H5-C5 (antibody, V domains shown)
VH: QVQLVESGGGLVKPGGSLRLSCAASGFSLSDYYMSWTRQAPGRGLEWVSFISSSGSTIYYVDSVKGRFTISRDHAKNSLYLQINSLRAEDTAVYYCARAQWLPDFDYWGQGTLVTVSS
VL: QSALTQPPSASGSPGQSVTISCTGTSSDVSGYNYVSWYQHHPDKAPKLLIYEVNKRPSGVPARFSGSKSGNTASLTVSGLQAEDEADYYCTSFADNNNVVFGGGTKLTVLG
notes: Both formats under this entry
B11: 9A3-C7 (antibody, V domains shown)
VH: B10 VH with T37I, F50Y, H74N, Y95H
VL: B10 VL with S30G, D43G, A45V, L49M, N54S, A62D, V100G
notes: Both formats under this entry
B12: 19B3-B3 M23K.M63L.HC (antibody, V domains shown)
VH: B3 VH with M23K, M63L
VL: B2 VL with T28S, W32L, N45K, Y87F, Y92N
notes: Optimized variant of 19B3-B3
B13: 19B3-B3 N92Y.LC.M23K.M63L.HC (antibody, V domains shown)
VH: B3 VH with M23K, M63L
VL: B2 VL with T28S, W32L, N45K, Y87F
notes: Optimized variant of 19B3-B3
B14: 19B3-B3 N92Q.LC.M23K.M63L.HC (antibody, V domains shown)
VH: B3 VH with M23K, M63L
VL: B2 VL with T28S, W32L, N45K, Y87F, Y92Q
notes: Optimized variant of 19B3-B3
B15: 10D1-G1 N31Q.N92Q.LC (antibody, V domains shown)
VH: B6 VH
VL: B6 VL with N31Q, N92Q
notes: Optimized variant of 10D1-G1; also called 10D1-G1 N31Q.N920.LC
B16: 10A9-D2 N31Q.LC (antibody, V domains shown)
VH: B7 VH
VL: B6 VL with N31Q, A43V, G50A, V58I, S93N
notes: Optimized variant of 10A9-D2

Target: cynomolgus monkey PD-L2 (full-length, on cells) (cynomolgus monkey)
Assay: FACS on HEK293 cells stably expressing full-length monkey PD-L2, 0.5 µg/ml antibody

binding | Binder
binds | B1
binds | B2
binds | B3
binds | B4
binds | B5
binds | B6
binds | B7
binds | B8
binds | B9
binds | B10
binds | B11

Target: cynomolgus monkey PD-L2 (full-length, on cells) (cynomolgus monkey)
Assay: FACS on HEK293T cells expressing cynomolgus PD-L2

binding | Binder
binds | B12
binds | B13
binds | B14
binds | B15
binds | B16
